# Library screening results

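Viability assay of Plasmodium falciparum sporozoites; the read-out is not stated. The concentration is filed as 10 mM, unlikely as a test dose, so the dose is not known. Direction is inferred from retests: higher values go with lower viability. Strong results were mostly tested again. Size under these conditions: about 34,000 compounds, about 280 of them at 50% or above in at least one test.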

Results are given as percent effect. The record does not define 0% and 100%; most values in the screen are far below 50% and negative numbers occur (in some assays of this library far below -100). The compounds are a random part of those screened. Two or more numbers in one place are separate tests of the same structure; such repeats can differ widely.

| Compound | percent effect |
|---|---|
| `Cc1cnn(C2CN(Cc3nnc(C4CC4)o3)C2)c1` | -16.09 |
| `Cc1cc(C(=O)NCCN2CCCCCC2)nn1C(C)(C)C` | -4.118 |
| `Cc1csc(NC(=O)c2cnc(C3CCNCC3)cn2)n1.Cl` | 7.261 & -12.76 & 22.33 |
| `O=C(CCc1ccc(C(F)(F)F)cc1)N1CCCS1(=O)=O` | -24.92 |
| `[H][C@@]12C[C@H](C(=O)Nc3ccccc3)[C@@]([H])(CN(C(=O)NC)C1)O2` | 4.139 |
| `CC[C@@H](C)[C@@H](N)C(=O)Nc1cccc(-c2cnc(N)nc2)c1` | 11.94 |
| `O=C(O)C(F)(F)F.O=C1CC(c2ccccc2)C2(CCN(C(=O)c3ccncc3F)CC2)N1` (stereo not shown) | 9.596 |
| `O=C(CCNC(=O)c1ccoc1)Nc1cc(F)cc(F)c1` | -18.06 |
| `Cc1nc(C)n(CC2CCCN2Cc2cn3ccccc3n2)n1` (stereo not shown) | 12.16 |
| `CC[C@@H](Cn1ncc2ccccc2c1=O)NC(=O)c1cnccn1` | -6.91 |
| `CCOC(C)c1noc(CN2CCN(Cc3cccc(F)c3)CC2)n1` (stereo not shown) | -0.3552 |
| `Cc1cc(CN2CCN(C(=O)CCCc3nc(C(C)C)no3)CC2)on1` | 13.41 |
| `Cc1cnc(C(=O)N2CCc3ncnc(C)c3CC2)cn1` | 6.829 |
| `NC(=O)c1cc(CC2CCCN(Cc3cnccn3)CC2)ncn1` (stereo not shown) | -4.908 |
| `CN(C)c1nccc(C2CCN(C3CCCCC3O)CC2)n1` (stereo not shown) | 9.429 |
| `Cc1nccn1CCCC(=O)N1CCCC(c2noc(C(C)C)n2)C1` (stereo not shown) | 1.926 |
| `[H][C@]12CC[C@@]3(N=C(C)N(C)C3=O)[C@@]1([H])CN(S(=O)(=O)CC(C)C)C2` | 10.44 |
| `NC(=O)c1cn[nH]c1C1CCCN1C(=O)c1ccccn1` (stereo not shown) | -10.29 |
| `N#Cc1cccc(CN2CCC3(CC2)CC(c2ccncc2)C(=O)N3)c1.O=C(O)C(F)(F)F.O=C(O)C(F)(F)F` (stereo not shown) | -15.33 |
| `C[C@@H]1CN(C(=O)NC2CC2)C[C@]12CCN(c1ccsc1)C2=O` | 0.1153 |
| `Cc1cnn(CC2CN(CC(=O)N(C)Cc3cccs3)CCO2)c1` (stereo not shown) | 0 |
| `NC(=O)Cn1cc(NC(=O)N2CCCC(O)C2)cn1` (stereo not shown) | 9.794 |
| `Cn1ccc(C(=O)NCc2ccc(N3CCCCC3)nc2)cc1=O` | 0.3943 |
| `CCCc1nc(CN2CCCN(Cc3nccn3C)CC2)no1` | 9.399 |
| `N#Cc1ccc(S(=O)(=O)NC(=O)COc2ccc3c(c2)CCC3)cc1` | 0.4884 |
| `CNC(=O)C1CN(C(=O)COc2ccccc2)Cc2cn(C)nc21` (stereo not shown) | 3.013 |
| `O=C(c1ccc(Br)o1)N1CCCCC1Cn1cccn1` (stereo not shown) | -7.769 |
| `O=C(O)C(F)(F)F.O=C(O)c1c(-c2cncnc2)ncc2c1CCN(CC1CCOC1)C2` (stereo not shown) | 8.776 |
| `O=c1c2ccccc2nc2n1C(CSc1ccc(Cl)cc1Cl)CN2` (stereo not shown) | 12.51 |
| `CC1=Nc2c(c(=O)[nH]n2C2CCCC2)C(c2cccnc2)S1` (stereo not shown) | -7.234 |
| `CC(CNc1cncc(-n2cccn2)n1)N(C)c1ccccc1` (stereo not shown) | -8.504 |
| `O=C(CC1CC1)N1CCc2ncc(Cn3cncn3)n2CC1.O=C(O)C(F)(F)F` | 2.491 |
| `COc1ccc(Br)c(C(=O)N2CCCC(c3nc(C)no3)C2)c1` (stereo not shown) | -2.007 |
| `O=C(O)C(F)(F)F.O=C(O)C(F)(F)F.[H][C@@]12COC[C@]1(COc1cccnc1)CN(C1CCOCC1)C2` | 15.84 |
| `O=C(O)C(F)(F)F.OCCOCc1ncn2c1CN(Cc1cccs1)CCC2` | 4.545 |
| `CCn1ncc2c1CCCC2NCc1cccc2c1OCCO2` (stereo not shown) | -37.69 & -32.36 & -1.193 |
| `COCC1COCCC12CCN(Cc1cccs1)CC2.O=C(O)C(F)(F)F` (stereo not shown) | 1.386 |
| `[H][C@]12CCN(C(=O)c3ccccc3F)C[C@@]1([H])OCCN(c1ncccn1)C2` | -1.46 |
| `CC(C)COc1cncc(NC(CO)c2ccco2)n1` (stereo not shown) | -11.94 |
| `CCCNC(=O)NC(=O)CNC(C)(C)c1ccc2c(c1)OCO2` | 3.678 |
| `O=C(O)c1nnn(-c2ccc(Cl)c(C(F)(F)F)c2)c1-c1ccncc1` | 11.9 |
| `[H][C@@]12CCN(c3ncccn3)C[C@@]1([H])[C@H](C(=O)NC(C)C)CCO2` | -6.602 |
| `CSCc1ccc(CNC2CCCN(c3ccc(C)nn3)C2)o1` (stereo not shown) | -7.157 |
| `COc1cc2c(cc1CNC(Cc1cccs1)c1nccs1)OCO2.Cl` (stereo not shown) | 6.276 |
| `O=C(NCc1ccnc(-n2cccn2)c1)C1CC(=O)N(CC2CC2)C1` (stereo not shown) | 0.03401 |

The values are deposited in ChEMBL (CHEMBL3988442, “University of Dundee, Small-Polar-MMV Screening Library” (2021)).